In patent US8053477B2, “Inhibitors of the S100-p53 protein-protein interaction and method of inhibiting cancer employing the same” (University of Maryland, Baltimore, priority 2002, dated 2011):
Some results were stated once for a whole list of compounds, not compound by compound. At least one structure is not confirmed: it was looked up by name or label, or the drawing left a doubt.

Target: T1, S100B (UniProt P04631)
T1 sequence (P04631 1-92): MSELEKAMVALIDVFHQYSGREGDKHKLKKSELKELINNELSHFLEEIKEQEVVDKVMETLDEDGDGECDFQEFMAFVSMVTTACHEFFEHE
Assay: Fluorescence binding / competition titrations of small molecules to S100B
Conditions: direct fluorescence, F43W S100B or peptide-probe competition; 25° C., calcium present; read-out: Kd (binding to S100B, fluorescence spectroscopy)
Description: Inhibition of binding of S100 proteins to p53 can be assayed by fluorescence binding/competition assays. For example, binding to S100B is monitored using fluorescent peptides such as the F43W p53 peptide ([…] (SEQ ID NO:1)) or the TRTK-12 peptide ([…] (SEQ ID NO:2)) that both contain fluorescent tryptophan residues (see Example 7). In such an assay, the binding of the peptide is monitored by changes in its fluorescence intensity at 350-370 nm in the presence of 10-20 mM calcium chloride (pH 7.4). Displacement of the peptide by the test compound is then monitored by a corresponding decrease in fluorescence intensity and the dissociation constant of the test compound from S100B is calculated using a standard competition equation (KD=Kapp/(1+[floursecent peptide]/KD peptide). The amino acid residues on S100B to which the test compound binds can then monitored by chemical shift perturbations using NMR spectroscopy.
The binding of the small molecules to S100B identified in the CADD search were measured using fluorescence spectroscopy. […]
Compounds that fluorescent (i.e., for Compounds 9, 31 and 33) were measured by a direct binding assay to S100B via fluorescence intensity changes. […] First, changes in tyrosine fluorescence (for Tyr-17 of S100B) were sufficient in some cases to evaluate binding (Rustandi et al (1998), supra; and Szabo et al, FEBS Lett., 94:249-252 (1978)). […]

Q: Which Kd does the source give for `O=C(O)c1ccc(Sc2ccc3c(c2)C(=O)N(c2cccc(C(=O)O)c2)C3=O)cc1` [Compound 38, (3-benzoic)-1,3,dioxo-2,3-dihydro-1H-isoindole-5-sulfanyl-4-benzoic acid] here?
A: Its Kd is < 200 µM.
